Test results reported in PubChem BioAssay AID758 (NMMLSC, 2007).
Hit rate of the full screen: of about 190,000 compounds, about 110 (0.058%) were called active. This list was built around the results that the source calls inconclusive (neither active nor inactive); the mix of calls is not that of the screen.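 The calls were made as follows: active = fluorescent GTP binding to Rab7 beads changed by at least 20 points from the 100% baseline, either direction, mostly lower; inconclusive = compound itself probably fluorescent, or too few beads counted; inactive = the rest.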

system: Rab7 GTPase wild type (dog), Bodipy-FL-GTP binding; assay: modulators of GTP binding to Rab7, primary screen, biochemical, wildtype, multiplex bead flow cytometry (AID 758); settings: GST-Rab7 beads, fluorescent GTP binding, at 10 µM, actives lie on both sides, untreated = 100%, excess cold GTP = 0%;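 also: median green fluorescence of bound Bodipy-FL-GTP per Rab7 bead population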

Row | SMILES | GTP binding activity (percent of control)
1 | Clc1cccc(NCc2cn3cccnc3n2)c1 | inactive: 104%
2 | COc1ccc(-n2c(SCc3ccc([N+](=O)[O-])cc3)nnc2-c2ccc(C)cc2)cc1 | inactive: 99%
3 | c1csc(-c2ccnc3ncnn23)c1 | inconclusive: 94%
4 | O=C(OCC(=O)c1ccc(Cl)cc1Cl)c1ccc2c(c1)C(=O)N(c1cccc3ncccc13)C2=O | inconclusive: 88%
5 | CC(C)=C1C2CCC1C1C(=O)N(c3nc(-c4ccc(C(C)C)cc4)c(C)s3)C(=O)C21 (stereo not drawn) | inactive: 96%
6 | CNc1nc(N)c(C(=O)C(C)(C)C)s1 | inactive: 95%
7 | Cc1ccc(-n2nnc(-c3cc4ccccc4nc3Cl)n2)cc1 | inconclusive: 95%
8 | Nc1nnc(-c2cc3c(ccc4ccccc43)oc2=O)s1 | inconclusive: 88%
9 | COc1ccc(Cc2nnc(NC(=O)c3ccco3)s2)cc1 | inconclusive: 101%
10 | Oc1c(C(c2ccccn2)N2CCOCC2)ccc2cccnc12 (stereo not drawn) | inconclusive: 248%
11 | CCOC(=O)CN1C(=O)C(O)=C(C(C)=O)C1c1ccc(F)cc1 (stereo not drawn) | inconclusive: 100%
12 | C/C(N)=C(/C#N)C(=O)COC(=O)c1ccccc1O | inconclusive: 102%
13 | CC(C)OCCCn1c(=NC(=O)c2ccncc2)c(C#N)cc2c(=O)n3ccccc3nc21 | inconclusive: 261%
14 | COC(=O)CNC(c1ccccc1Cl)c1cc(Br)ccc1NC(=O)CCN1CCOCC1 (stereo not drawn) | inconclusive: 104%
15 | CCn1c(SCC(=O)O)nnc1-c1cc2c(C)nn(-c3ccccc3)c2s1 | inactive: 85%
16 | COC(=O)N/N=C(\C)c1cccc(C(F)(F)F)c1 | inconclusive: 93%
17 | O=c1c2ccccc2nnn1COc1ccc(F)cc1Cl | inconclusive: 93%
18 | Cn1c(NC(=O)c2cc(-c3ccc4c(c3)OCO4)nc3ccccc23)cc(=O)n(C)c1=O | inconclusive: 110%
19 | COc1ccc(N=C2C(=O)N3c4c(cccc42)C(C)=CC3(C)C)cc1 | inactive: 97%
20 | COc1ccc(NC(=O)c2ccc3c(=O)n(-c4ccc(OC)cc4OC)c(=S)[nH]c3c2)c(OC)c1 | inconclusive: 91%

Given field by field: two of the compounds above.
COc1ccc(-n2c(SCc3ccc([N+](=O)[O-])cc3)nnc2-c2ccc(C)cc2)cc1
  GTP binding activity (percent of control): inactive: 99%
CC(C)OCCCn1c(=NC(=O)c2ccncc2)c(C#N)cc2c(=O)n3ccccc3nc21
  GTP binding activity (percent of control): inconclusive: 261%

Remaining list, next part:

Row | SMILES | GTP binding activity (percent of control)
21 | Cc1cc(C(=O)Nc2c[nH]c(=O)[nH]c2=O)ccc1[N+](=O)[O-] | inconclusive: 94%
22 | Cc1ccc(-c2nn(-c3cc(N4CCNCC4)ccc3[N+](=O)[O-])c(=O)c3ccccc23)cc1 | inactive: 108%
23 | O=C(COc1ccc2ccccc2c1)NCCc1ccc2c(c1)OCCO2 | inconclusive: 91%
24 | O=C(O)c1ccc(CSc2nnc(Cc3ccccc3)o2)cc1 | inconclusive: 93%
25 | C/C(N)=C(/C#N)C(=O)CSc1nc2ccccc2n1CC(C)C | inactive: 99%
26 | Cc1ccc2c(c1)[C@@H](O)C[C@@H](C)N2N=O | inconclusive: 102%
27 | COc1ccc(C)cc1S(=O)(=O)N(CC(=O)O)c1ccc(F)cc1 | inconclusive: 92%
28 | COc1cccc(NC(=S)NNC(=O)Cn2nc([N+](=O)[O-])cc2C)c1 | inconclusive: 96%
29 | N#CC1=C(N)Oc2c(ccc3ccccc23)C1c1ccsc1 (stereo not drawn) | inconclusive: 93%
30 | CCCCNC(=O)CN1C(=O)c2cccc(N)c2C1=O | inconclusive: 96%
31 | CCc1c(C)nc2c(C#N)c[nH]n2c1=O | inconclusive: 87%
32 | CCCC(C(=O)NC1=NCCS1)c1ccccc1 (stereo not drawn) | inconclusive: 96%
33 | O=C(NCCC1=CCCCC1)C(c1ccccc1)c1ccccc1 | inconclusive: 90%
34 | Cc1ccc(Cc2cnc(NC(=O)/C(C#N)=C/c3ccc(-c4ccc([N+](=O)[O-])cc4)o3)s2)cc1 | active: 79%
35 | C=CCNC(=O)COc1ccc(S(=O)(=O)N2CCCC2)cc1 | inconclusive: 97%
36 | O=C(Nc1cc(S(=O)(=O)Nc2ccccc2Cl)ccc1O)c1sc2cc(Cl)ccc2c1Cl | inactive: 94%
37 | COCCn1c(SCC(=O)Nc2cccc(C)c2)nnc1C(C)C | inconclusive: 102%
38 | Cc1ccc(C(=O)C(C)OC(=O)c2cc3cc([N+](=O)[O-])ccc3oc2=O)cc1 (stereo not drawn) | inconclusive: 90%
39 | C[C@@H]1CN(C(=O)c2nc3ccc(Cl)cn3c2CN2CCc3sccc3C2)C[C@H](C)O1 | inactive: 93%
40 | COCCn1c(SCC(=O)N2CCCCC2)nc2ccccc2c1=O | inconclusive: 108%

Row | SMILES | GTP binding activity (percent of control)
41 | COc1cc(N2CCCC2)c(OC)cc1/C=C(/C#N)c1ccc(F)cc1 | inconclusive: 112%
42 | Cc1sc2nc3c(SC(C)C(=O)O)cc(C(=O)c4ccccc4O)cn3c(=O)c2c1C (stereo not drawn) | inactive: 89%
43 | c1ccc2[nH]c(CSc3nc4ccccc4s3)nc2c1 | inconclusive: 103%
44 | O=C(Cn1nc2ccccc2n1)N/N=C/c1cc([N+](=O)[O-])ccc1O | inactive: 82%
45 | CC(C)CC(CC(C)C)=NNC(=O)c1ccc(CSc2nncn2C)cc1 | inactive: 104%
46 | CC(C)NC(=O)C12CC3CC(C1)CC(n1cnc(Cl)n1)(C3)C2 | inactive: 105%
47 | O=C(NCCO)/C(=C\c1cccs1)NC(=O)c1cccs1 | inconclusive: 96%
48 | COC(=O)c1c(N)sc(C(=O)N2CCOCC2)c1C | inconclusive: 103%
49 | O=C(NCCc1c[nH]c2ccccc12)/C(=C/c1cccnc1)NC(=O)c1ccco1 | inactive: 98%
50 | COc1ccc(-n2nnnc2SCc2nc(N)nc(N3CCOCC3)n2)cc1 | inconclusive: 97%
51 | CC(=O)N1CCc2cc(S(=O)(=O)NC3CCCc4ccccc43)ccc21 (stereo not drawn) | inconclusive: 101%
52 | O=C(CCS(=O)(=O)c1cc(Br)cc2c1N(C(=O)C1CC1)CC2)NCc1ccco1 | inconclusive: 104%
53 | Cc1ccc(/C([O-])=C(/C(=S)NCc2ccccc2)[n+]2cccc(CO)c2)cc1[N+](=O)[O-] | inconclusive: 94%
54 | COc1ccccc1CNc1nc(S(=O)(=O)c2ccccc2)c(Cl)s1 | inconclusive: 100%
55 | CN(CCc1cn[nH]c1)Cc1nc(C(c2ccccc2)c2ccccc2)no1 | inconclusive: 95%
56 | COc1cc(C(=O)Nc2ccncc2)cc(OC)c1OC | inconclusive: 103%
57 | O=C(NCCc1c[nH]c2ccccc12)C1CCC(Cn2c(=S)[nH]c3ccccc3c2=O)CC1 (stereo not drawn) | inconclusive: 102%
58 | Cc1cc(-c2ccccc2)nc(SCC(=O)N2CCCC2)n1 | inactive: 96%
